4 sequences from publication PMC3094755 can be followed below.

Sequences of proteins named here, by UniProt entry; tags and fusion partners are left off. Residues count along the entry.
UniProt P09874, 1-214: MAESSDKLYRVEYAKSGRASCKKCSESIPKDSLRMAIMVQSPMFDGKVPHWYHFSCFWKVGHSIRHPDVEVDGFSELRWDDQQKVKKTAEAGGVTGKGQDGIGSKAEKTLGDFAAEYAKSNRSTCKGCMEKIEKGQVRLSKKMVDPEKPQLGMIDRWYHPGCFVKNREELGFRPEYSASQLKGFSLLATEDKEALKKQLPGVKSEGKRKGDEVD
UniProt P09874, 103-214: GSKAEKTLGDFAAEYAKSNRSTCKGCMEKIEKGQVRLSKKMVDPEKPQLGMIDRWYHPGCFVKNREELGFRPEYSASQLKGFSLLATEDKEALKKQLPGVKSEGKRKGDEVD
UniProt P09874, 103-214 G135D: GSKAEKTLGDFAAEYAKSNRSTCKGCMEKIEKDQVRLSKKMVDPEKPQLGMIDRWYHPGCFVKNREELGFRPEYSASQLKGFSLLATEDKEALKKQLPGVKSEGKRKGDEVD
UniProt P09874, 103-214 K134I: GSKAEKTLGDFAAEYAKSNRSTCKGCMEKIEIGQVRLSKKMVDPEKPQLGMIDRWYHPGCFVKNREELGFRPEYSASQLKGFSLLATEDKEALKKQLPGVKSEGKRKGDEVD

Broadly, the Kd is the equilibrium constant for the complex coming apart.

For part of these data: A negative result means that nothing was seen under these conditions. For part of these data: The comparison behind a weaker result is the experiment's own reference, which may not be listed here. For part of these data: For at least one entry, the source does not settle the construct or the ends of the probe. For part of these data: At least one verdict was read from the data and is not stated in words by the source.

The target in data set [1] is PARP-1 F1+F2 (24-kDa DBD) (Homo sapiens) (UniProt P09874). Briefly: fluorescence anisotropy. As to conditions: 0-200 mM NaCl, FA: 50 mM Tris-HCl pH 7, 150 uM ZnSO4, 4 mM DTT, 25 C, 10 nM DNA (mutants 25 nM DNA, 25 mM NaCl), recombinant protein. In general terms: Polarisation of emitted light reports the rotation of a fluorescent probe.
In data set [2] the target is PARP-1 F2 (Homo sapiens) (UniProt P09874). Briefly: fluorescence anisotropy. As to conditions: weak site (KD2), 5'-phosphate, FA: 50 mM Tris-HCl pH 7, 150 uM ZnSO4, 4 mM DTT, 0-200 mM NaCl, 25 C, 10 nM DNA (mutants 25 nM DNA, 25 mM NaCl), recombinant protein, residues 103-214, label: fluorescein-dT at T8, folded or branched DNA.
The target in data set [3] is PARP-1 F1+F2 (24-kDa DBD) (Homo sapiens) (UniProt P09874). Description: SV-AUC. The settings on record: 0.5 uM DNA, 5x protein, no 1:1 complex, residual interaction; circular, nick sealed by T4 DNA ligase; recombinant protein; residues 1-214; label: fluorescein-dT at T8; folded or branched DNA; letters put together from the description.
The target in data set [4] is PARP-1 F2 G135D (Homo sapiens) (UniProt P09874). Briefly: EMSA. The settings on record: 400 nM DNA; 5'-phosphate; EMSA: 50 mM Tris-HCl pH 7.4, 150 uM ZnSO4, 4 mM DTT, 10% glycerol, RT incubation, gel at 4 C; recombinant protein; residues 103-214; folded or branched DNA. For orientation: A gel shift assay detects complexes by their altered migration in electrophoresis.
The target in data set [5] is PARP-1 F2 R122 mutant (Homo sapiens) (UniProt P09874). Description: EMSA. As to conditions: 400 nM DNA; 5'-phosphate; EMSA: 50 mM Tris-HCl pH 7.4, 150 uM ZnSO4, 4 mM DTT, 10% glycerol, RT incubation, gel at 4 C; recombinant protein; residues 103-214; folded or branched DNA.
Data set [6] concerns the target PARP-1 F2 S120 mutant (Homo sapiens) (UniProt P09874). Description: EMSA. The settings on record: 400 nM DNA; 5'-phosphate; EMSA: 50 mM Tris-HCl pH 7.4, 150 uM ZnSO4, 4 mM DTT, 10% glycerol, RT incubation, gel at 4 C; recombinant protein; residues 103-214; folded or branched DNA.
The target of data set [7] is PARP-1 F2 K141 single mutant (Homo sapiens) (UniProt P09874). Briefly: EMSA. The settings on record: 400 nM DNA; 5'-phosphate; EMSA: 50 mM Tris-HCl pH 7.4, 150 uM ZnSO4, 4 mM DTT, 10% glycerol, RT incubation, gel at 4 C; recombinant protein; residues 103-214; folded or branched DNA.
In data set [8] the target is PARP-1 F2 K131 single mutant (Homo sapiens) (UniProt P09874). Description: EMSA. The settings on record: 400 nM DNA; 5'-phosphate; EMSA: 50 mM Tris-HCl pH 7.4, 150 uM ZnSO4, 4 mM DTT, 10% glycerol, RT incubation, gel at 4 C; recombinant protein; residues 103-214; folded or branched DNA.
Data set [9] deals with PARP-1 F2 K134I (Homo sapiens) (UniProt P09874). Description: EMSA. As to conditions: 400 nM DNA; 5'-phosphate; EMSA: 50 mM Tris-HCl pH 7.4, 150 uM ZnSO4, 4 mM DTT, 10% glycerol, RT incubation, gel at 4 C; recombinant protein; residues 103-214; folded or branched DNA.
For data set [10], the target named is PARP-1 F2 K142 single mutant (Homo sapiens) (UniProt P09874). Description: EMSA. As to conditions: 400 nM DNA; 5'-phosphate; EMSA: 50 mM Tris-HCl pH 7.4, 150 uM ZnSO4, 4 mM DTT, 10% glycerol, RT incubation, gel at 4 C; recombinant protein; residues 103-214; folded or branched DNA.
Data set [11] concerns the target PARP-1 F2 K119 mutant (Homo sapiens) (UniProt P09874). Description: EMSA. The settings on record: 400 nM DNA; 5'-phosphate; EMSA: 50 mM Tris-HCl pH 7.4, 150 uM ZnSO4, 4 mM DTT, 10% glycerol, RT incubation, gel at 4 C; recombinant protein; residues 103-214; folded or branched DNA.
Data set [12] concerns the target PARP-1 F2 K197 mutant (Homo sapiens) (UniProt P09874). Description: EMSA. The settings on record: 400 nM DNA, identical to wild type; 5'-phosphate; EMSA: 50 mM Tris-HCl pH 7.4, 150 uM ZnSO4, 4 mM DTT, 10% glycerol, RT incubation, gel at 4 C; recombinant protein; residues 103-214; folded or branched DNA.
Data set [13] deals with PARP-1 F2 W157 mutant (Homo sapiens) (UniProt P09874). Description: EMSA. The settings on record: 400 nM DNA; 5'-phosphate; EMSA: 50 mM Tris-HCl pH 7.4, 150 uM ZnSO4, 4 mM DTT, 10% glycerol, RT incubation, gel at 4 C; recombinant protein; residues 103-214; folded or branched DNA.

“CGGTCGATCGTAAGATCGACCGCGGTCGATCGTAAGATCGACCG”: the binding result in data set [1] (values in Supp. Table 1, not in material, 5'-phosphate, residues 1-214, label: fluorescein-dT at T8 and T30, folded or branched DNA) is listed as “binds”; in [1] (150 mM NaCl, circular, nick sealed by T4 DNA ligase, residues 1-214, label: fluorescein-dT at T8 and T30, folded or branched DNA, letters put together from the description) it was “no binding”; in data set [1] (200 mM NaCl, circular, nick sealed by T4 DNA ligase, residues 1-214, label: fluorescein-dT at T8 and T30, folded or branched DNA, letters put together from the description), “no binding”.
Consider “CGGTCGATCGTAAGATCGACCGGCGCTGGAGCTTGCTCCAGCGC [44-nt nicked dumbbell, 5'-phosphate, fluorescein-dT]”, for which the Kd worked out at 2600 nM in data set [1] (100 mM NaCl, nonspecific secondary site (KD2), 5'-phosphate, residues 1-214, label: fluorescein-dT at T8, folded or branched DNA); 1700 nM in data set [2] (50 mM NaCl); 10600 nM in data set [2] (100 mM NaCl).
“CGGTCGATCGTAAGATCGACCGGCGCTGGAGCTTGCTCCAGCGC [ligated (circular) 44-nt dumbbell, fluorescein-dT]”: the binding result in [1] (tight site eliminated, circular, nick sealed by T4 DNA ligase, residues 1-214, label: fluorescein-dT at T8, folded or branched DNA, letters put together from the description) is on record as “binds more weakly”; in data set [3], “binds more weakly”.
On to “CGGTCGATCGTAAGATCGACCGTGCGCTGGAGCTTGCTCCAGCGC [45-nt gapped dumbbell, 5'-phosphate]”, for which the binding result in data set [4] is given as “binds more weakly”; in data set [5], “no binding”; in [6], “no binding”; in [7] it was “binds more weakly”; in data set [8], “binds more weakly”; in data set [9], “binds more weakly”. Further, the binding result in data set [10] is listed as “binds more weakly”; in [11] it was “no binding”; in data set [12] it was “binds”; in data set [13] it was “no binding”.
